We go through 1 compound from patent US10117948B2, “Selective arylation of dichalcogenides in biomolecules” (priority 2015, dated 2018).

Molecules are shown by their SMILES. Values after ≈ are worked out from the molar mass of the structure shown.

Holding throughout (test): MIC screening, vancomycin vs vancomycin/peptide conjugates
What all share (type): cell-based

Assay [1] relates to S. aureus MSSA: QC (MMX 100, ATCC 29213). As to conditions: Staphylococcus aureus. An excerpt: (§1) Vancomycin was conjugated to a variety of antibacterial peptides and screened against (a) resistant strains of gram-positive bacteria and b) gram-negative bacteria. See FIG. 20, FIG. 21, FIG. 22, and Table 3.
The test system of assay [2] is S. aureus MRSA (MMX 7778). As to conditions: Staphylococcus aureus.
From the text: as §1

The test system of assay [3] is P. aeruginosa QC (MMX 103, ATCC 27853). The following applies: Pseudomonas aeruginosa, ATCC27853.
From the text: as §1

In assay [4] the test system is E. coli QC (MMX 102, ATCC 25922). As to conditions: Escherichia coli, ATCC25922.
From the text: as §1

In general, MIC refers to the lowest concentration found to suppress growth. Regarding `CN[C@H](CC(C)C)C(=O)N[C@H]1C(=O)N[C@@H](CC(N)=O)C(=O)N[C@H]2C(=O)N[C@H]3C(=O)N[C@H](C(=O)N[C@H](C(=O)O)c4cc(O)cc(O)c4-c4cc3ccc4O)[C@H](O)c3ccc(c(Cl)c3)Oc3cc2cc(c3O[C@@H]2O[C@H](CO)[C@@H](O)[C@H](O)[C@H]2O[C@H]2C[C@](C)(N)[C@H](O)[C@H](C)O2)Oc2ccc(cc2Cl)[C@H]1O` [vancomycin], the MIC in assay [1] was 1 µg/mL (≈ 0.69 µM); in assay [2] it was 1 µg/mL (≈ 0.69 µM); in assay [3] it was above 64 µg/mL; in assay [4] it was above 64 µg/mL.
